Results of single-concentration screens

Sequences of proteins named here, by UniProt entry; tags and fusion partners are left off. Residues count along the entry.
UniProt Q8IDJ8, 1-583: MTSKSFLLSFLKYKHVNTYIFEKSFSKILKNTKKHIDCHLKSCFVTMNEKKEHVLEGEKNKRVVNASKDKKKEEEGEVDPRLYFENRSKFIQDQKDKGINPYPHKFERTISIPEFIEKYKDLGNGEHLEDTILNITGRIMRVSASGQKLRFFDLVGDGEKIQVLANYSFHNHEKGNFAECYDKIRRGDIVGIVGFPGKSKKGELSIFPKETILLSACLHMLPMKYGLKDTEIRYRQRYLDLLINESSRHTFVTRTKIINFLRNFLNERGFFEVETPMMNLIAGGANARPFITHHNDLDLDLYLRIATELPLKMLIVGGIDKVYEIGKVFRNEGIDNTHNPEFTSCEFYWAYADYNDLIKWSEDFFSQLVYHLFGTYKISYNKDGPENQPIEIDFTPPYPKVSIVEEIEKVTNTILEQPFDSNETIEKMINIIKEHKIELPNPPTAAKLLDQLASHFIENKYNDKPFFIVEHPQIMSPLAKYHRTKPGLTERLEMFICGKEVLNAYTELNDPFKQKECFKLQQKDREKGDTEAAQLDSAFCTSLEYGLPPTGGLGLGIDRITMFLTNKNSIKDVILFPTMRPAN
UniProt P9WFT3, whole entry: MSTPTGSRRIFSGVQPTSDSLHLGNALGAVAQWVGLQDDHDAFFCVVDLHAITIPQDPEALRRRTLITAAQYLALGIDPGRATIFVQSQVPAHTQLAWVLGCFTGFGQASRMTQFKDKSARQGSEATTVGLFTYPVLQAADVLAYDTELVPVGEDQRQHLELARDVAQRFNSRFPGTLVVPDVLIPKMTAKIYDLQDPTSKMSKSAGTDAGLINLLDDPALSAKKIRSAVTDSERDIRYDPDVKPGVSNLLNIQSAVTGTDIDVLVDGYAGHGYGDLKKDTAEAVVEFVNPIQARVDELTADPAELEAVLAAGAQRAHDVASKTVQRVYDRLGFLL

Results are given as percent effect. How 0% and 100% were set is not recorded. Most values in the screen are low, and negative values occur. Compounds were drawn at random from those tested, without regard to their results.

A: 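Enzyme assay of the cytosolic lysyl-tRNA synthetase in 384-well plates, read by luminescence. Target: Lysine-tRNA ligase, Plasmodium falciparum 3D7 (UniProt Q8IDJ8). Concentration: 30 µM. Higher reads as stronger inhibition, judged from the few compounds that gave an IC50. Size under these conditions: about 69,000 compounds, about 49 of them at 50% or above in at least one test.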
B: 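Enzyme assay of tryptophanyl-tRNA synthetase; the read-out is not stated. Target: Tryptophan-tRNA ligase, Mycobacterium tuberculosis (UniProt P9WFT3). Compounds at 10 µM. Higher most likely means stronger inhibition; the record gives no direction and few retests gave an IC50. About 65,000 compounds were tested under these conditions; 0.098% (about 64) showed 50% or more at least once.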

Result for O=C(CC1CCc2ccccc21)NCCSc1ccccn1 (stereo unspecified) was A: -4.283%; B: 0.6552%.
Result for Cc1ccnc(N2CCC(C(N)=O)CC2)n1 was A: 0.3188%.
Result for CC1CCN(c2ncc3c(n2)CN(c2ccc(F)cc2)C3=O)CC1 was A: 3.29%; B: 4.158%.
Result for Cc1cc(N2CCC(N(C)Cc3cc(=O)c(O)co3)CC2)nc(C)n1 was A: 0.3546%; B: 1.019%.
Result for CC(C)(C)c1ccc(S(=O)(=O)CCN2CCNC(=O)CC2)cc1 was A: 0.154%; B: 4.059%.
Result for O=c1c(S(=O)(=O)N2CCCC2)cccn1Cc1c(F)cccc1Cl was A: 6.143%; B: -0.08333%.
Result for O=C(NC[C@H]1OC[C@@H](NC(=O)c2ccccc2)[C@@H]1O)c1ccncc1 was A: 11.1%; B: 1.144%.
Result for COc1cc(N2CCC3(CC2)OCC(=O)NC3C)ncn1 (stereo unspecified) was A: 4.085%.
Result for CN(C)CC1CN(Cc2ccc(-n3cccn3)cc2)CCO1 (stereo unspecified) was A: 0.1842%; B: -0.5731%.
Result for Cc1nccn1CC1CCCN1S(=O)(=O)Cc1cccc(C#N)c1 (stereo unspecified) was A: 1.265%; B: 9.474%.

Measurements from “University of Dundee, Small-Polar-MMV Screening Library” (2021), ChEMBL document CHEMBL3988442.